Data taken from ChEMBL document CHEMBL3988442, “University of Dundee, Small-Polar-MMV Screening Library” (2021).

Sequences of proteins named here, by UniProt entry; tags and fusion partners are left off. Residues count along the entry.
UniProt P9WNZ1, whole entry: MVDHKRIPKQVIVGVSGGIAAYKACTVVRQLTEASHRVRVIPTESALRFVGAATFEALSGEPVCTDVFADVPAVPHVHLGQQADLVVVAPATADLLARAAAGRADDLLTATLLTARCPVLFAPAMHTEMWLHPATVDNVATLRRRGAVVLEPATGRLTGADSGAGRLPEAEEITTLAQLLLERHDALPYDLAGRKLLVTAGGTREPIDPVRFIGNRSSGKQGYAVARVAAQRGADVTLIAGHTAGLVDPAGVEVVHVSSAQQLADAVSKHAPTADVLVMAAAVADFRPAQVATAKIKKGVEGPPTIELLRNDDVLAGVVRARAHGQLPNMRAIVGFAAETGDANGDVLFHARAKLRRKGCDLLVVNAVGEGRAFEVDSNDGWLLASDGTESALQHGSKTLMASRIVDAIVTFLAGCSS
UniProt A4I591, 1-473: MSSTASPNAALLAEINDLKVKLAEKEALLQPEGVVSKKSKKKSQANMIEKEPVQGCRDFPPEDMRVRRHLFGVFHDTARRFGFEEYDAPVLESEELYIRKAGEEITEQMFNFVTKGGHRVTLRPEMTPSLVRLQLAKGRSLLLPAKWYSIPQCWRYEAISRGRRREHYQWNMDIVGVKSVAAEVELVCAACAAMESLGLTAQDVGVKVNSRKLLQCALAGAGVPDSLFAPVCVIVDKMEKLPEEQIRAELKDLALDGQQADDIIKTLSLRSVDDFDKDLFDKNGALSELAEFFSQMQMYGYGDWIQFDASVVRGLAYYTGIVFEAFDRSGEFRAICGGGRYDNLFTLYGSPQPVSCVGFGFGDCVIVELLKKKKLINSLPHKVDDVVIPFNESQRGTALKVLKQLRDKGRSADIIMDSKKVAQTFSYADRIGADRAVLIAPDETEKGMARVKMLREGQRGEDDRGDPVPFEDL

CoaBC: 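Coenzyme A biosynthesis protein CoaBC, Mycobacterium tuberculosis (UniProt P9WNZ1). Enzyme assay of CoaBC with a phosphate dye (Biomol Green) read at 650 nm. Concentration: 30 µM. Direction is inferred from only a few compounds that gave an IC50; most scored high, so higher reads as stronger inhibition. Most strong results did not repeat in a second test. Size under these conditions: about 67,000 compounds, about 40 of them at 50% or above in at least one test.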
LiHisRS: 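Histidine-tRNA ligase, Leishmania infantum (UniProt A4I591). Enzyme assay of histidyl-tRNA synthetase; the read-out is not stated. Tested at 30 µM. Direction is inferred from retests: higher values go with stronger inhibition. The assay is labelled LdHisRS but filed under L. infantum. Size under these conditions: about 69,000 compounds, about 410 of them at 50% or above in at least one test.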
Leishmania in macrophages: 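Cell assay of Leishmania donovani living inside macrophages; the read-out is not stated. Compounds at 30 µM. Direction is inferred from retests: higher values go with stronger inhibition. Of about 69,000 compounds tested this way, about 1,000 (1.5%) reached 50% or more in at least one test.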

The filed quantity is “Percent Effect” (%). The record does not define 0% and 100%; most values in the screen are far below 50% and negative numbers occur (in some assays of this library far below -100). Compounds were drawn at random from those tested, without regard to their results. Two or more numbers in one place are separate tests of the same structure; such repeats can differ widely.

{"compound": "CCCn1nnnc1CN(C)C(C)c1ccc(C)cc1", "stereo": "stereo not given", "CoaBC": 6.64, "LiHisRS": 15.38, "Leishmania in macrophages": -12.79}
{"compound": "COc1nn(C)cc1C(=O)NCC(=O)NCc1cccnc1", "CoaBC": 3.171, "LiHisRS": 13.91, "Leishmania in macrophages": "4.542 and 8.093"}
{"compound": "CC(NC(=O)NCCCOc1ccccc1F)c1nncn1C", "stereo": "stereo not given", "CoaBC": 1.512, "LiHisRS": 14.88, "Leishmania in macrophages": -3.69}
{"compound": "COCCN1C[C@H]2CCC[C@@H](CNc3ncccn3)[C@H]2C1", "CoaBC": 3.448, "LiHisRS": 28}
{"compound": "O=C(c1ccccc1F)N1CC2(CCNCC2)c2cc(Cl)ccc21", "CoaBC": 5.176, "LiHisRS": 24.77}
{"compound": "COc1cc(CNC(=O)C2CC(=O)N(C(C)C)C2)ccn1", "stereo": "stereo not given", "CoaBC": 6.995, "LiHisRS": 8.511, "Leishmania in macrophages": 8.471}
{"compound": "Cc1cccc(-n2ncc3c2CCCC3NCc2cnn(C)c2C)c1C", "stereo": "stereo not given", "CoaBC": 3.308, "LiHisRS": 10.26, "Leishmania in macrophages": "28.08 and 46.18"}
{"compound": "C[C@@H]1CN(Cc2nc(C(N)=O)no2)CC[C@@]1(O)C1CCOCC1", "CoaBC": 3.163, "LiHisRS": 4.444, "Leishmania in macrophages": 22.16}
{"compound": "Cc1cccc(CN2C(=O)CCC23CCN(Cc2cccn2C)CC3)n1", "CoaBC": 1.451, "LiHisRS": 29.27}
{"compound": "COc1cc(-c2cnnc(NCCCOC(C)C)n2)cc(OC)c1OC", "CoaBC": 0.7712, "LiHisRS": -1.042, "Leishmania in macrophages": -37.93}
{"compound": "CC(CN1CCOCC1)NC(=O)c1cc(Cl)c2c(c1)OCO2", "stereo": "stereo not given", "CoaBC": 11.6, "LiHisRS": 12.39, "Leishmania in macrophages": -80.77}
{"compound": "COCc1cncc2c1CCN(C(=O)c1ccc(C#N)cc1)C2", "CoaBC": 1.98, "LiHisRS": 0.9009}
{"compound": "Nc1cc2c(nn1)CCN(C(=O)CCCC1CCCCC1)C2", "CoaBC": 3.937, "LiHisRS": 30.51, "Leishmania in macrophages": 27.92}
{"compound": "CCCc1cncnc1N1CCC(NCCc2nc(O)cc(O)n2)CC1", "CoaBC": 3.226, "LiHisRS": 14.47, "Leishmania in macrophages": 18.48}
{"compound": "c1ccc(Cc2noc(CN3CCCC(Cn4cncn4)C3)n2)cc1", "stereo": "stereo not given", "CoaBC": 13.54, "LiHisRS": 14.04, "Leishmania in macrophages": 18.22}
{"compound": "Cc1ccc(OCC(C)NS(C)(=O)=O)cc1", "stereo": "stereo not given", "CoaBC": 3.782, "LiHisRS": 4.274, "Leishmania in macrophages": 5.664}
{"compound": "O=C(NCCNC(=O)C1CC1)c1cnc(-c2ccccc2)nc1", "CoaBC": 10.73, "LiHisRS": 18.03, "Leishmania in macrophages": 0.6667}
{"compound": "O=C(O)C(F)(F)F.O=C(c1ccccn1)N1CCCC2(CCN(c3ccsc3)C2=O)C1", "stereo": "stereo not given", "Leishmania in macrophages": -20.84}
{"compound": "CCn1nc(C)c(CN2CCNCC2)c1C", "CoaBC": -3.695, "LiHisRS": 6.897, "Leishmania in macrophages": 18.91}
{"compound": "O=C(O)C(F)(F)F.[H][C@]12CCN(Cc3c(C)noc3C)[C@@]1([H])CC[C@H](COCC)O2", "Leishmania in macrophages": 13.9}
{"compound": "Cc1cc(N)nc(SC2CCCN(Cc3ccccc3)C2=O)n1", "stereo": "stereo not given", "CoaBC": 1.629, "LiHisRS": 8.824, "Leishmania in macrophages": 5.338}
{"compound": "O=C(NCc1ccc(-n2cncn2)nc1)c1cc[nH]n1", "CoaBC": 1.942, "LiHisRS": 29.41, "Leishmania in macrophages": 45.56}
{"compound": "Cc1ccc(CN2C[C@H](O)C[C@H]2c2nc(-c3ccc(F)cc3)no2)cc1", "CoaBC": 6.129, "LiHisRS": 2.778, "Leishmania in macrophages": 13.15}
{"compound": "Cn1cc(CNC2CC3(CCN(S(C)(=O)=O)CC3)c3ccccc32)cn1.O=C(O)C(F)(F)F", "stereo": "stereo not given", "Leishmania in macrophages": 22.45}

The first 3 entries again:

For CCCn1nnnc1CN(C)C(C)c1ccc(C)cc1 (stereo not given) the result was CoaBC: 6.64%; LiHisRS: 15.38%; Leishmania in macrophages: -12.79%.
For COc1nn(C)cc1C(=O)NCC(=O)NCc1cccnc1 the result was CoaBC: 3.171%; LiHisRS: 13.91%; Leishmania in macrophages: 4.542% and 8.093%.
For CC(NC(=O)NCCCOc1ccccc1F)c1nncn1C (stereo not given) the result was CoaBC: 1.512%; LiHisRS: 14.88%; Leishmania in macrophages: -3.69%.